Test results reported in article PMC10163288.
The other results are listed elsewhere or left out.

B1: il2ra_site2_2erj_normal_mot_c2bf78bdce995293a161f7082e24b401_0001_af2_000000082_0001_17_32_H_._HHH_b2_07485_0001_0000600036_0000001_0 (protein)
chain: SSSSSEEREEIEELIERLEEAIERGDLEQAYRLANRALHLISKLGDEELQEELAETLERASSSSS
B2: il2ra_site2_3nfp_normal_mot_HHH_b1_00660_af2_000000090_0001_40_57_H_._HHH_b2_00996_0001_0000300010_0000001_0_af2pred_0001_af2pred_1 (protein)
chain: SSSSSEEEEARRLVEEVEELLKEGDPEEAEKLLEKAILVVAELGDFELFALLSELRELLESSSSS
B3: il2ra_site2_2erj_normal_mot_HHH_b2_01275_af2_000000073_0001_23_39_H_._HHH_b2_05199_af2_0001_0000200020_0000001_0 (protein)
chain: SSSSDEKLRELYELAVLLVRLLWEGDEEKFEEVLEQAKKLAEERDSRSAEEFLEELEKRLSSSSS
B4: il2ra_site2_2erj_normal_mot_HHH_b2_01275_af2_000000073_0001_23_39_H_._HHH_b1_05548_af2_0001_0000200008_0000001_0 (protein)
chain: SSSSSDERLRRVYELAVRLLAAQSEEEIEKVYEEVRKLAEELDNPELEELVEFLFRHARSSSSSS
B5: il2ra_site2_3nfp_normal_mot_ems_p1-15H-GBL-16H-GBL-14H_0089_0001_0001_0001_af2_000000072_0001_19_33_H_._2582da7ae1e3161411d063f18acf3b14_0001_1_0001_0000200003_ … (protein)
chain: PDVSRILYKLLEEDPDNDLAFELFALLLEAILKGDEELRERLKEAAELLEEGDPERAEELLERLR
B6: il2ra_site2_2erj_sap_24_mot_3b06bd03f1c6bceadc68eab912867b79_0001_000000296_0001_36_50_H_._HHH_b2_06883_af2_0001_0000600006_0000001_0_0001_af2pred_0001_1_af2pre … (protein)
chain: SSSSDVEEIIEEIEELLERNDREQVEHLAEELLELAQEINDPELLFAVLEVLERVKEFLDSSSSS
B7: il2ra_site1_1z92_normal_mot_9c3e5e2d2b9ffb70dc788f52fbfab6d5_0001_1_af2_000000019_0001_53_65_H_._HHH_b1_04252_af2_0001_0000100010_0000001_1 (protein)
chain: SSSSDELEEIAREIVEELVKEFDLSERQKEELERVAERLLEAGSDEEKIRKILHKLARAAGSSSS
B8: il2ra_site1_1z92_sap_12_mot_HHH_b1_07624_af2_000000183_0001_1_21_H_._HHH_b2_00546_0001_0000500044_0000001_0_0001_af2pred_dldesign_0_af2pred (protein)
chain: DEEVAKILELLKTDKEKALEALIEYLRSLGSPAEIYLADYLERLKKEDPERAEKYAHKVLEMALK
B9: il2ra_site1_2b5i_sap_18_mot_0921d739bb7547bb6fa23329820ad62a_0001_000000012_0001_54_65_H_._HHH_b1_07747_af2_0001_0000200003_0000001_0_0001_af2pred_dldesign_0_af … (protein)
chain: DLEAVAARLRKEDPEAYRLLRLARKALRKKGVPDEEIERLFRELLREAPSPRAAVEALAEFALEL
B10: il2ra_site2_3nfp_normal_mot_HHH_b1_01086_000000225_0001_20_36_H_._HHH_b2_03301_0001_0000100007_0000001_0 (protein)
chain: SSSSDEEERVRELLEEARKLIEEGNPEEAEKVLQEATQLIYELGDFELFAELVDLSFELFSSSSS
B11: il2ra_site2_3nfp_normal_mot_HHH_b1_03851_000000147_0001_21_38_H_._HHH_b2_07765_af2_0001_0000100002_0000001_0 (protein)
chain: SSSSSSDELEELIREIERAEEEGDRNEVAELLLELAKLAAELNDEEAAEFVLKVYAELRSSSSSS
B12: il2ra_site1_2b5i_normal_mot_HHH_b1_01495_af2_000000272_0001_42_56_H_._HHH_b2_05717_0001_0000100005_0000001_0 (protein)
chain: SSSSDEQEELQELFLEASRLIRNGNPEEARRVLEEAEQLAREAGDEKALKDLEFMLERLNSSSSS
B13: il2ra_site2_2erj_sap_31_mot_HHH_b1_00941_000000051_0001_45_58_H_._HHH_b1_02781_0001_0000200010_0000001_0_0001 (protein)
chain: SSSSDEELHELFELLNELIRLLEEGDDEEFQKLLEELKRLAEELGSRTLKEMLELLERQFKSSSS
B14: il2ra_site1_3nfp_normal_mot_cc4219192d8ccd35c40e7b68f9a57604_0001_af2_000000124_0001_16_32_H_._HHH_b1_07852_af2_0001_0000300041_0000001_0 (protein)
chain: SSSSSNTRWLEELAERAHERNDRLQLRVLAKLVRRALEIHGNPEAEEVLKLIEELLERLKSSSSS
B15: il2ra_site2_2erj_normal_mot_HHH_b2_02303_000000050_0001_43_56_H_._HHH_b2_07923_0001_0000300013_0000001_1 (protein)
chain: SSSSSDDEVAELIIEAVELANNGNPEEARRVLEEAEELARELNNPLLERYVELALEDIRSSSSSS
B16: il2ra_site2_2erj_sap_10_mot_HHH_b1_07741_000000192_0001_1_20_H_._HHH_b2_00205_0001_0000700036_0000001_0_0001 (protein)
chain: SSSSSHEEEVRELLEEAEKAYREGDLHLVFELLSRALHVAAKHQDQELQEEIARFVEELTSSSSS
B17: il2ra_site1_1z92_sap_24_mot_HHH_b2_05734_000000004_0001_1_18_H_._353039fe001517a32f73519ce70da452_0001_af2_0001_0000100005_0000001_0_0001_af2pred_0001_af2pred_1 (protein)
chain: SSSSSLERSLKRAVELAVKEAGLSEEQEKELEELVEELIRRGVDFKEAIKIIDKRALELANSSSS
B18: il2ra_site1_2b5i_sap_9_mot_HHH_b1_05188_af2_000000065_0001_43_56_H_._HHH_b1_04782_af2_0001_0000100004_0000001_0_0001_af2pred_dldesign_0_af2pred (protein)
chain: SSSSSMSAEIRRLILKAEELRKAGKDEEAIKLLEEALKLAKEQNSSLAKIIERNLERLLESSSSS
B19: il2ra_site2_2erj_normal_mot_HHH_b1_06160_000000008_0001_39_56_H_._HHH_b1_01229_0001_0000100002_0000001_0_af2pred_0001_af2pred (protein)
chain: SSSSDEERRALEITLEAVALAHRLRDEETVEEIEELTEEYKEEGDPHYLEIVEELLKELKSSSSS

Biological target: il2ra, P01589
Experiment: yeast display titration

Apparent Kd, inactive:
B1 no binding seen
B2 no binding seen
B3 no binding seen
B4 no binding seen
B5 no binding seen
B6 no binding seen
B7 no binding seen
B8 no binding seen
B9 no binding seen
B10 no binding seen
B11 no binding seen
B12 no binding seen
B13 no binding seen
B14 > 1040 nM
B15 no binding seen
B16 no binding seen
B17 no binding seen
B18 no binding seen
B19 no binding seen

Fetched one by one from the list above:
Apparent Kd, inactive:
B2 no binding seen
B11 no binding seen
